Primary screen of a compound library

By UniProt entry, the sequences of proteins in these tests, tags left out. Residues count along the entry.
UniProt A4I591, 1-473: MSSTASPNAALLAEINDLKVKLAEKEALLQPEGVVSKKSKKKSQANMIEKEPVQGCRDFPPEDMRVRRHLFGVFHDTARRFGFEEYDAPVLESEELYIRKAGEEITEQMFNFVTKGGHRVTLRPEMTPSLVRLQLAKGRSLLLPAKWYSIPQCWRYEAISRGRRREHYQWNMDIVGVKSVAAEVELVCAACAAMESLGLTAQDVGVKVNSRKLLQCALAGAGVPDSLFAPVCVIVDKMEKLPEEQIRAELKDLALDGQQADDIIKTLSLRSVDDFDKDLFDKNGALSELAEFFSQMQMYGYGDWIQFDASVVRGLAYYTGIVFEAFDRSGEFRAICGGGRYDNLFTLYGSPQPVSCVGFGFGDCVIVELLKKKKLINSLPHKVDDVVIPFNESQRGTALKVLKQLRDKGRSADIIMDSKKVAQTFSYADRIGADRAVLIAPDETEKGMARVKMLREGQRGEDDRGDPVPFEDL
UniProt Q4DA54, 1-478: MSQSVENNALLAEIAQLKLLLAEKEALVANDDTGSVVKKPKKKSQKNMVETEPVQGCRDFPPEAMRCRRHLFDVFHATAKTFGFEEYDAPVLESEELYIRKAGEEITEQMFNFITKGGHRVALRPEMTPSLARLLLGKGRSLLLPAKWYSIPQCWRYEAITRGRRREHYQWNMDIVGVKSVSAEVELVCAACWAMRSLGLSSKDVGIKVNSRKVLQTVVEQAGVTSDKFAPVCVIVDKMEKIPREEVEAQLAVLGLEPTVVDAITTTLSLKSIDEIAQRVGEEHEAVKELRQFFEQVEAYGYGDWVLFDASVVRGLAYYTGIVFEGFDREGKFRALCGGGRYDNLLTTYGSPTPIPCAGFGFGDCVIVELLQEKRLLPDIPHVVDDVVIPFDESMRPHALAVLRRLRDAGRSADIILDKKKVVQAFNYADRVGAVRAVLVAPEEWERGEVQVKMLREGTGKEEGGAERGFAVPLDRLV
UniProt Q8IDJ8, 1-583: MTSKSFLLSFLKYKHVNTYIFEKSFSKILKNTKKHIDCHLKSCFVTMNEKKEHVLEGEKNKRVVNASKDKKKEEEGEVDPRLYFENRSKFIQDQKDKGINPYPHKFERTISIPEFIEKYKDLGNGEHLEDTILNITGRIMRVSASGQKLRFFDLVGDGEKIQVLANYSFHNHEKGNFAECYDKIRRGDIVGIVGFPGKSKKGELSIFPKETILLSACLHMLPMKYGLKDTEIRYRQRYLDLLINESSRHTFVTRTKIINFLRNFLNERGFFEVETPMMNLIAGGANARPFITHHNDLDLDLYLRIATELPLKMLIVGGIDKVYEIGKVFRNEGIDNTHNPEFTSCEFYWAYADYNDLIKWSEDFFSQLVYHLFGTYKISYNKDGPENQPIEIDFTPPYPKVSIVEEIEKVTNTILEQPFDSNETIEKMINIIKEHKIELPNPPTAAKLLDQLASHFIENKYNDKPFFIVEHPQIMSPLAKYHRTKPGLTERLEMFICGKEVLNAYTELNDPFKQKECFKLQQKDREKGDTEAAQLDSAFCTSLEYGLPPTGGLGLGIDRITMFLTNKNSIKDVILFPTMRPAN

The values are deposited in ChEMBL (CHEMBL3988442, “University of Dundee, Small-Polar-MMV Screening Library” (2021)).

LiHisRS: 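Enzyme assay of histidyl-tRNA synthetase; the read-out is not stated. Target: Histidine-tRNA ligase, Leishmania infantum (UniProt A4I591). Compounds at 30 µM. Higher reads as stronger inhibition (inferred: compounds with an IC50 in retests scored well above the rest). The assay is labelled LdHisRS but filed under L. infantum. About 69,000 compounds were tested under these conditions; 0.6% (about 410) showed 50% or more at least once.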
TcHisRS: 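Enzyme assay of histidyl-tRNA synthetase; the read-out is not stated. Target: Histidine-tRNA ligase, Trypanosoma cruzi CL Brener (UniProt Q4DA54). Concentration: 30 µM. Direction is inferred from retests: higher values go with stronger inhibition. About 69,000 compounds were tested under these conditions; 0.045% (about 31) showed 50% or more at least once.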
PfKRS1: 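Lysine-tRNA ligase, Plasmodium falciparum 3D7 (UniProt Q8IDJ8). Enzyme assay of the cytosolic lysyl-tRNA synthetase in 384-well plates, read by luminescence. Compounds at 30 µM. Direction is inferred from only a few compounds that gave an IC50; most scored high, so higher reads as stronger inhibition. Of about 69,000 compounds tested this way, about 49 (0.071%) reached 50% or more in at least one test.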
Leishmania in macrophages: 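Cell assay of Leishmania donovani living inside macrophages; the read-out is not stated. Concentration: 30 µM. The record gives no direction; compounds that gave an IC50 in retests scored well above the rest, so higher reads as stronger inhibition. Of about 69,000 compounds tested this way, about 1,000 (1.5%) reached 50% or more in at least one test.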

The filed quantity is “Percent Effect” (%). The controls that fix the scale are not given in the record; negative values are as filed. This is an unselected part of the compounds tested. Two or more numbers in one place are separate tests of the same structure; such repeats can differ widely. A dash means the value is not listed here; it may have been measured.

| compound | LiHisRS | TcHisRS | PfKRS1 | Leishmania in macrophages |
|---|---|---|---|---|
| `Cc1noc(C)c1CN1CCC2(CC1)CN(c1ccccn1)CCO2.O=C(O)C(F)(F)F.O=C(O)C(F)(F)F` | - | - | - | -9.71% |
| `CC(C)CN1CCCC12CCN(c1nncs1)C2.O=C(O)C(F)(F)F` (stereo not shown) | - | - | - | 3.327% & 34.33% |
| `CC[C@@]1(O)CCN(C(=O)CCSCc2ccc(F)cc2)C[C@H]1O` | 5.833% | -14.49% | -1.859% | -8.433% |
| `Cc1ccc(CN2CCC3(CC2)NC(=O)CC3c2ccccc2)s1` (stereo not shown) | 28.44% | 8.173% | 6.236% | - |
| `CC(NC(=O)N1CCCN(Cc2cccs2)CC1)c1cccnc1` (stereo not shown) | 12% | 0.3802% | 1.904% | 34.35% |
| `O=C(O)C(F)(F)F.O=C(O)C(F)(F)F.O=C(O)c1cc2c(nc1N1CCCC1)CCN(C1CCOCC1)CC2` | - | - | - | -14.87% & -4.356% |
| `CCC1=N[C@@]2(CC[C@@H]3CN(Cc4ccc(F)cc4)C[C@@H]32)C(=O)N1C` | 8.182% | 7.407% | 1.398% | - |
| `O=C(CSC1=NS(=O)(=O)c2cc(F)ccc2N1)Nc1ccc(Cl)c(Cl)c1` | 2.74% | -13% | -0.9223% | 1.93% |
| `O=C(c1ccccn1)N1CCc2c(nc(N3CCCC3)[nH]c2=O)C1` | 13.89% | 1.622% | 1.447% | -2.348% |
| `O=C(NCC1CC1)C1CN(C(=O)Cc2cccs2)CC12CCOCC2` (stereo not shown) | 22.22% | 0.4975% | 6.119% | 4.845% |
| `Cc1cc(C)n(Cc2ccc(C(=O)NCCN3CCOCC3)cc2)n1` | 20.19% | 1.626% | 5.969% | 15.9% |
| `Cc1sc2c(C3CCNCC3)nc(Nc3cccc(F)c3)n2c1C` | 11.51% | 4.215% | -1.466% | - |
| `COc1ccccc1CC1CCN(C(=O)CCc2ccccn2)CC1` | 6.14% | 13.79% | 2.992% | -7.952% |
| `CCc1cc(=O)n(CC(=O)N2CCCCC2)c(-c2cccc(F)c2)n1` | 18.52% | 4.018% | 8.349% | 36.23% |
| `COCCc1noc(-c2cn(Cc3ccc(OC)cc3)nn2)n1` | 14.17% | -9.662% | 3.984% | -24.77% |
| `Cc1ccc(N2CCO[C@H]3CN(Cc4ccc(F)cc4)C[C@H]32)nn1` | 11.93% | 15.97% | 5.078% | - |
| `CC(C)c1ncc(C(=O)N2CCOCC2CC(=O)c2ccco2)s1` (stereo not shown) | 0% | 4.523% | 3.454% | 12.06% |
| `CN(C)c1nccc(C2CCCN2S(=O)(=O)c2cn(C)cn2)n1` (stereo not shown) | 13.1% | 4.563% | 1.2% | -10.21% |
| `O=S(=O)(CC1CCCCC1)NCc1ccnc(O)c1` | 12.28% | 4.202% | 5.73% | 3.407% |
| `CCn1c(CN(C)C)nnc1C1CCN(c2nccc(NC)n2)CC1` | 3.419% | 4.865% | 1.22% | -3.97% |
| `Cc1cc(N2CCCN(C(=O)CSCC3CC3)CC2)ccn1` | 12.59% | 5.473% | 0.3726% | -5.789% |
| `Cc1ccc(C)c(CS(=O)(=O)CC(=O)NCCCOC(C)C)c1` | 21.15% | 5.714% | 4.371% | 29.3% |
| `CN1CCCN(C(=O)c2cc3c(s2)CCN3C(=O)C2CC2)CC1` | 23.68% | 11.49% | 1.027% | 24.76% |
| `COc1cccc(OCC(=O)N2CCOc3ccncc32)c1` | -4.286% | 7.447% | -4.328% | -18.35% |
| `CC1CCN(CC(O)CNc2ccccn2)CC1` (stereo not shown) | 10.96% | 4.762% | 0.516% | -53.87% |
| `Cc1csc2ncc(-c3ccnc(N4CCC[C@H](C(N)=O)C4)n3)c(=O)n12` | 17.14% | 7.91% | 3.211% | -6.101% & 2.442% |
| `CC(C)NC(=O)CN1CCSC2(CCCCC2)C1` | 6.4% | 0.9804% | -1.06% | -10.27% |
| `CCn1nc(C)c(CN2CCC(c3ccn[nH]3)C2)c1C` (stereo not shown) | 16.11% | 3.714% | 0.2094% | 27.2% |
| `CNC(=O)[C@@H]1COC[C@H]2CN(C(=O)c3cccc(OC)c3)C[C@H]21` | 8.772% | 0% | -4.224% | - |
| `OCC1(Cc2cccc(Cl)c2)CCCN(c2ncccn2)C1` (stereo not shown) | 27.06% | -0.4484% | -1.077% | -1.288% |
| `O=C(NCc1ccco1)[C@H]1C[C@@H]2CCN(c3ncccn3)C[C@H]2O1` | 12.5% | 4.762% | 0.7312% | - |
| `COCCN1CCc2c(CNC(=O)c3nccn3C)cncc2C1.Cl.Cl.Cl` | - | - | - | 19.55% |
| `[H][C@@]12C[C@H](C(=O)N(C)C)[C@@]([H])(CN(C(=O)NCc3ccccc3C)C1)O2` | - | - | - | 9.441% |
| `CN(Cc1nncn1C)c1nccc(C2CCCC2)n1` | 9.211% | 2.463% | 2.257% | 2.095% |
| `CCn1nc(C)cc1C(=O)N1CC[C@H](OC)[C@H]2CN(CC3CC3)C[C@H]21` | 3.947% | 5.435% | -0.4673% | - |
| `Cc1cc(C)cc(C(=O)N2CCN(C(=O)N(C)C)CC2(C)C)c1` | 16.46% | 3.879% | 4.685% | 18.82% |
| `Fc1ccc(CN2CCC(c3noc(-c4cnccn4)n3)CC2)cc1F` | 7.092% | 8.647% | 0.6712% | 6.029% |
| `Cc1ccc(N2CCO[C@H]3CN(C(=O)c4cccc(C)n4)C[C@H]32)nn1` | 9.722% | 7.619% | -6.534% | - |
| `CCOCCC(=O)NCCNc1nccc(C(F)(F)F)n1` | -3.333% | 5.682% | 1.517% | -29.49% |
| `O=C(O)C(F)(F)F.O=S(=O)(c1cccs1)N1CCCC2(COCCN(c3cccnc3)C2)C1` (stereo not shown) | - | - | - | 12.26% |
| `COCCC1(C(=O)O)CCCN(C(=O)c2cc(Cl)ccc2F)C1` (stereo not shown) | 1.266% | 7.328% | 0.9902% | 8.897% |
| `CCCn1cc(NC(=O)c2ccc(NC(=O)NC3CC3)cc2)ccc1=O` | 92.79% | 3.333% | 3.047% | 0.417% |
| `O=C(Cc1ccc2c(c1)CCO2)N1CCN(c2nccs2)CC1` | 23.64% | 7.018% | 9.899% | -6.431% |
| `Cl.Cl.c1cnc(NCc2cncc3c2CCN(CC2CC2)C3)nc1` | - | - | - | 42.31% |
| `O=C(O)c1ccc(COc2cccc(Cl)c2)s1` | -1.724% | -3.478% | 1.134% | 44.75% |
| `CNC(=O)[C@@]12CCC3(CCNCC3)[C@@H]1CN(S(C)(=O)=O)C2` | 12.5% | 11.21% | 1.389% | - |
| `Cc1ncc(CNC2CC(=O)N(CCc3cccc(Cl)c3)C2)n1C` (stereo not shown) | 3.191% | 6.03% | 3.27% | 34.49% |
| `COc1ccnc(N2CCN(C(=O)c3cc(C4CC4)[nH]n3)CC2)n1` | 16.39% | 2.326% | 8.443% | 6.909% |
| `CCCc1nc(C(C)(C)NC(=O)C2CC(=O)N(CC3CC3)C2)no1` (stereo not shown) | 9.231% | 3.448% | 1.794% | -2.232% |
| `CC(C)(C)n1ncc2c1NC(=O)CC2c1ccc(C(=O)O)cc1` (stereo not shown) | 25.97% | 2.424% | 3.835% | -26.17% |
| `CNC(=O)Cc1ccccc1NC(=O)N[C@H]1c2ccccc2C[C@H]1O` | 20% | 15.15% | 4.339% | -12.33% |
| `COCc1nn(CC2CC2)c2c1CN(Cc1ccco1)CC2.O=C(O)C(F)(F)F` | - | - | - | 6.57% |
| `Cc1[nH]c2ccc(CNc3cc(C#N)ccn3)cc2c1C` | 18.03% | 16.8% | 2.448% | 20.32% |
| `CN(C)CCN1CCC2(CCN(C(=O)c3cccnc3)CC2)C1=O` | 15.6% | 2.404% | 2.468% | 5.884% |
| `NC(=O)Cn1ccc(NC(=O)C2(c3cccc(Cl)c3)CC2)n1` | 9.677% | 5.155% | 3.717% | 23.25% |
| `CCCN(CCS(C)(=O)=O)C1CCc2ccccc2C1` (stereo not shown) | 16.42% | 0% | 3.211% | 42.09% |
| `COc1c(C)cnc(CN(C)C2CCCCC2)c1C` | 0% | 8.173% | -6.655% | 77.94% |
| `O=C(N[C@@H]1CN(c2ncccn2)C[C@@H]2CCCO[C@@H]21)c1cccnc1` | 2.857% | 7.843% | 6.195% | - |
| `Cc1nn(C)c(N(C)C)c1CNCc1cccc(CN(C)C)c1` | 13.11% | -10.47% | 4.972% | - |
| `CC(C)CNC(=O)c1cn(C)c(=O)c2ccccc12` | 18.75% | 10.42% | 3.079% | 1.756% |
| `CS(=O)(=O)c1cncnc1C1CCCN(C(=O)Nc2ccccc2F)C1` (stereo not shown) | 5.797% | 1.515% | -0.6972% | 24.35% |
| `CNc1cc(C2CCCN2Cc2ccccc2C(=O)O)ccn1` (stereo not shown) | 16.67% | 3.784% | 0.1608% | 25.94% |
| `O=C(CN1CCCCC1=O)N1CCC2(CC1)[C@H](O)C[C@@H]2O` | 8.197% | 7.2% | 7.297% | -15.01% |
| `COCc1cnc2n1CCN(C1CCC1)C2C.O=C(O)C(F)(F)F` (stereo not shown) | - | - | - | 10.94% |
| `Cc1noc(NC(=O)c2ccc(OC(F)(F)F)cc2)n1` | 28.79% | 0% | 2.37% | -6.731% |
| `Cc1cc(C)n(CCCN(C)C(=O)CN2CC3(CCNCC3)OC2=O)n1` | 22.86% | 12.99% | 1.241% | 29.11% |
| `Cc1ccc2c(c1)C(=O)NCC1(CCN(Cc3ccccc3)CC1)O2` | -2% | 5.993% | 1.133% | 2.977% |
| `Cc1nc(C(=O)NCc2ccccn2)cc(C2CCCN2)n1` (stereo not shown) | 8.511% | 13.91% | 1.236% | -0.9365% |

5 of the entries, repeated:

compound	LiHisRS	TcHisRS	PfKRS1	Leishmania in macrophages
O=C(CN1CCCCC1=O)N1CCC2(CC1)[C@H](O)C[C@@H]2O	8.197%	7.2%	7.297%	-15.01%
Cc1noc(C)c1CN1CCC2(CC1)CN(c1ccccn1)CCO2.O=C(O)C(F)(F)F.O=C(O)C(F)(F)F	-	-	-	-9.71%
CNC(=O)Cc1ccccc1NC(=O)N[C@H]1c2ccccc2C[C@H]1O	20%	15.15%	4.339%	-12.33%
NC(=O)Cn1ccc(NC(=O)C2(c3cccc(Cl)c3)CC2)n1	9.677%	5.155%	3.717%	23.25%
CCCn1cc(NC(=O)c2ccc(NC(=O)NC3CC3)cc2)ccc1=O	92.79%	3.333%	3.047%	0.417%